Data: patent US6465432B1, “Isolated antioxidant peptides form casein and methods for preparing, isolating, and identifying antioxidant peptides” (Kraft Food Holdings, Inc., priority 2000, dated 2002)
Some of these results come from one statement about several compounds together.

Experiment: ABTS total antioxidative activity assay (ABTS, metmyoglobin, H2O2; absorbance at 734 nm)
Format: biochemical
Details: synthesized peptide 0.0832 mM
Experimental: Phase I fractions of the protein hydrolysates generated with various proteases in Example 1 were analyzed for their ability to prevent accumulation of free radicals derived from 2,2′-azino-bis(3-ethylbenzthiazoline-6-sulfonic acid) (ABTS). Both total antioxidative activity and total reducing power of protein hydrolysate using ABTS and preformed ABTS radical, respectively, were used. These two model systems allowed mechanistic information of antioxidative activity of protein hydrolysates to be obtained. Furthermore, the analysis provided specific data related to whether the protein hydrolysates have the capacity of scavenging radicals in an oxidation system.
Total antioxidant assays using ABTS were performed according to Cox et al., “Biological assays for cellular transformation,” Methods in Enzymology 238:277 (1994); and Plumb et al., “Are Whole Extracts and Purified Glucosinolates from Cruciferous Vegetables Antioxidants?,” Free Rad. Res. 25:75 (1996). The assay was performed in a total volume of 1.2 ml. […]

Row | Substance | time within which oxidation reached maximal levels [h]
1 | Gln-Phe-Tyr [cyclic QFY] (cyclic; Bovine) [cyclic tripeptide, fragment of alpha S1-casein (amino acid residues 167-169) from bovine milk] | ≤ 1.5
2 | Gln-Phe-Tyr [linear QFY] | ≤ 1.5
